No constants are given. Whether binding was seen depends on the method and setting. Some binding calls cover weakened binding; strength is not graded here. Tags and fused reporters may be left off the sequences shown.

Assay [1] deals with T1, Utp15-FLAG (S. cerevisiae) (UniProt Q04305).
T1 sequence: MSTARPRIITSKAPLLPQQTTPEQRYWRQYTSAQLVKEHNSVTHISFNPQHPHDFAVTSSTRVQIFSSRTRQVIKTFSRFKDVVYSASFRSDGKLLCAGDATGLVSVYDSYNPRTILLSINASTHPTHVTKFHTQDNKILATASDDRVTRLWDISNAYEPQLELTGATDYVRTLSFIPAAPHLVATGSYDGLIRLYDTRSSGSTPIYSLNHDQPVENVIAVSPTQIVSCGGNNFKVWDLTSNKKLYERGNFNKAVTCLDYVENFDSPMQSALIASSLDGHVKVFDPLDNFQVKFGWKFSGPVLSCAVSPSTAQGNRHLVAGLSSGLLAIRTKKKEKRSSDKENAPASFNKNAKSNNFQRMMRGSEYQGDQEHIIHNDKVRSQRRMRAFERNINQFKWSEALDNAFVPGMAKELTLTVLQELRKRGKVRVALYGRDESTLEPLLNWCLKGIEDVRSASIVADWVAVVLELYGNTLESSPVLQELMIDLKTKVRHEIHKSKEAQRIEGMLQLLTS
Kind of assay: SEC; bacmid K2000; anti-FLAG eluate (Utp15-FLAG) fractionated on Superose 6 PC 3.2/30 in buffer A100, 4°C; fractions by SDS-PAGE, MS and Western blot (anti-HA, anti-FLAG).

Assay [2] addresses T1, Utp15-FLAG (S. cerevisiae). Kind of assay: SEC; bacmid K2123; eluate of the two-step purification (Utp4-TAP, then Utp15-FLAG) fractionated on Superose 6; fractions by SDS-PAGE, Coomassie.

B1: Nan1-HA (protein, UniProt Q02931 1-896)
chain: MTQSLGIEQYKLSVVSGGKPALNNLSSVTGNKNIARLSQDQRNYIIPFNNQIKVYSVETRQCVKTLKFANNSLLSGIFLQEEENNESIVKILLGDITVPQQEDAHLITVFTNNGHVIVLNYKGKLVESPKHFKISLADEKLANVFHSEGNYRILTTFKDPSQKAHNSLQSYRLYALTFDDAKKQFEVAHQAEWHNVILSNISSNGKLLAHMCKDVSTKDHEHKSISVVSLFDDSVNLSFPLGSILSSQTQSLSYNTRYVSSMAIDNMGQQLAVGFASGVISIVSLADLQIRLLKWHIDSVLSLSFSHDGSYLLSGGWEKVMSLWQLETNSQQFLPRLNGIIIDCQVLGPQGNYYSLILQMTENNSNSDYQFLLLNASDLTSKLSINGPLPVFNSTIKHIQQPISAMNTKNSNSITSLNHSKKKQSRKLIKSRRQDFTTNVEINPINKNLYFPHISAVQIFDFYKNEQVNYQYLTSGVNNSMGKVRFELNLQDPIITDLKFTKDGQWMITYEIEYPPNDLLSSKDLTHILKFWTKNDNETNWNLKTKVINPHGISVPITKILPSPRSVNNSQGCLTADNNGGLKFWSFDSHESNWCLKKISLPNFNHFSNSVSLAWSQDGSLIFHGFDDKLQILDFDTFKKFESLENTKTVSEFTLDSEIQTVKLINDTNLIVATRTTLNAINLLRGQVINSFDLYPFVNGVYKNGHMDRLITCDERTGNIALVINQQLTDLDGVPTINYKSRIIIFDSDLSTKLGNFTHHEYISWIGWNYDTDFIFLDIESTLGVVGTTVNTQLSDEVNNEGILDGLVSNTITTSASNSDIFAEQLHKLSSRGKKSDTRDKNTNDNDEDEEDIALEFINGEKKDKLVNMNSFTSMFDNIQNVQMDTFFDRVMKVLT
For the molecule B1, the binding entry in assay [1] was “binds weakly”.

B2: Utp5 (protein, UniProt Q04177 1-643)
chain: MDSPVLQSAYDPSGQYLCYVTVALDKQRVGVQPTQRATSSGVDTVWNENFLYLEDSKLKVTCLKWVNLASSDTVAIILGMNNGEIWLYSVLANEVTYKFTTGNSYEIKDIDLMGNQLWCIDSSDAFYQFDLLQFKLLQHFRINNCVQLNKLTIVPAGDSVAQLLVASHSISLIDIEEKKVVMTFPGHVSPVSTLQVITNEFFISGAEGDRFLNVYDIHSGMTKCVLVAESDIKELSHSGQADSIAVTTEDGSLEIFVDPLVSSSTKKRGNKSKKSSKKIQIVSKDGRKVPIYNAFINKDLLNVSWLQNATMPYFKNLQWREIPNEYTVEISLNWNNKNKSADRDLHGKDLASATNYVEGNARVTSGDNFKHVDDAIKSWERELTSLEQEQAKPPQANELLTETFGDKLESSTVARISGKKTNLKGSNLKTATTTGTVTVILSQALQSNDHSLLETVLNNRDERVIRDTIFRLKPALAVILLERLAERIARQTHRQGPLNVWVKWCLIIHGGYLVSIPNLMSTLSSLHSTLKRRSDLLPRLLALDARLDCTINKFKTLNYEAGDIHSSEPVVEEDEDDVEYNEELDDAGLIEDGEESYGSEEEEEGDSDNEEEQKHTSSKQDGRLETEQSDGEEEAGYSDVEME
Turning to B2, the binding entry in assay [2] and in assay [1] was “binds” in each case.

B3: Utp8 (protein, UniProt P53276 1-713)
chain: MPSLSQPFRLATLPKIASLSNFSLQADYVQVADGTFNESTNNITLGISGSSISQYIINPTPKLTFDYPIPSTNIITACNAEKGQANIDGNIEASTDDEANNEKTINTQKKRNVEIWAFGLMVNKGNYTLNVITKALEDTTDTSNDHLSESDIDNKAYTGSDEFLSQYKIKAKAKVMSIKIDTKNSLVIAILQNGLIEIFDFKLTLLHSFDISYDNLKYAKWFTENGTEYVFVLCPLQDDKVCYKLLELTDCGSGESSPIKELSSTIIEGFSFENSKLCYQFGKLYKLNQGKIYIYSLPHCQLQQVIEFPMVDKLSPGDDLISFQPVSVNRVLLTVNNVIYLLDLLHCSTLSQRELTHVKTFQLLKSAVINSEKSHNSKTIAIGISTKNGPNPTSSLEIINIDVGTNTLKDSLGKSFQVGNNDSSVILKPLFDDKDINDKRVKCNDVSGDSSVPVLHCNEVIEKLSALQDNDITSFDDIFFKELKIKEEHYTEKDRYISDPGFLNKVLDLIFGKFSGNDYPKTLTFLLTHPLFPLSRTRNLLSLLRDQPRLFKQAIVTCPNLPLNELLEELFSIRNRELLLDISFRILQDFTRDSIKQEMKKLSKLDVQNFIEFITSGGEDSSPECFNPSQSTQLFQLLSLVLDSIGLFSLEGALLENLTLYIDKQVEIAERNTELWNLIDTKGFQHGFASSTFDNGTSQKRALPTYTMEYLDI
For the molecule B3, the binding entry in assay [2] and in assay [1] was “binds” each time.

B4: Utp4 (protein, UniProt Q06679 1-776)
chain: MSSSLLSVLKEKSRSLKIRNKPVKMTSQERMIVHRCRFVDFTPATITSLAFSHKSNINKLTPSDLRLAIGRSNGNIEIWNPRNNWFQEMVIEGGKDRSIEGLCWSNVNGESLRLFSIGGSTVVTEWDLATGLPLRNYDCNSGVIWSISINDSQDKLSVGCDNGTVVLIDISGGPGVLEHDTILMRQEARVLTLAWKKDDFVIGGCSDGRIRIWSAQKNDENMGRLLHTMKVDKAKKESTLVWSVIYLPRTDQIASGDSTGSIKFWDFQFATLNQSFKAHDADVLCLTTDTDNNYVFSAGVDRKIFQFSQNTNKSQKNNRWVNSSNRLLHGNDIRAICAYQSKGADFLVSGGVEKTLVINSLTSFSNGNYRKMPTVEPYSKNVLVNKEQRLVVSWSESTVKIWTMGTDSSTEQNYKLVCKLTLKDDQNISTCSLSPDGQVLVVGRPSTTKVFHLQPVGNKLKVTKLDNDLLLRTSTKLVKFIDNSKIVICSCEDDVFIVDLESEEDEKPQEVELLEVTSTKSSIKVPYINRINHLEVDQNIAVISRGCGVVDILDLKARISKPLARLNNFITAVHINTSRKSVVVITADNKIYEFNMNLNSEAENEDSESVLTQWSKNNTDNLPKEWKTLKENCVGIFSDIENSSRLWFWGATWISRIDFDVDFPINKRRKQKKRTHEGLTITDESNFMNDEEDDEDDDIDMEISENLNVLLNQGNKIKSTDVQRNEESSGHFFFTDKYKPLLFVDLISSNELAIIERNPLTFHSKQKAFIQPKLVF
As for B4, the binding entry in assay [1] is recorded as “binds”.

B5: Utp4-TAP (protein, UniProt Q06679 1-776)
chain: B4 chain
With B5, in assay [2], the binding result is listed as “binds”.

B6: Utp9 (protein, UniProt P38882 1-575)
chain: MGSSLDLVASFSHDSTRFAFQASVAQKNNVDIYPLNETKDYVVNSSLVSHIDYETNDMKVSDVIFFGWCSDLIDTQSSNIKRKLDEDEGTGESSEQRCENFFVNGFPDGRIVVYSSNGKDIVNIIKNKKEILGADTDESDIWILDSDKVVKKLQYNNSKPLKTFTLVDGKDDEIVHFQILHQNGTLLVCIITKQMVYIVDPSKRRPSTKYSFEISDAVACEFSSDGKYLLIANNEELIAYDLKEDSKLIQSWPVQVKTLKTLDDLIMALTTDGKINNYKIGEADKVCSIVVNEDLEIIDFTPINSKQQVLISWLNVNEPNFESISLKEIETQGYITINKNEKNNADEADQKKLEEKEEEAQPEVQHEKKETETKINKKVSKSDQVEIANILSSHLEANSTEILDDLMSGSWTEPEIKKFILTKINTVDHLSKIFLTISKSITQNPWNEENLLPLWLKWLLTLKSGELNSIKDKHTKKNCKHLKSALRSSEEILPVLLGIQGRLEMLRRQAKLREDLAQLSMQEGEDDEIEVIEHSNVISNPLQDQASPVEKLEPDSIVYANGESDEFVDASEYKD
Turning to B6, the binding result in assay [2] and in assay [1] was “binds” each time.

The values are drawn from article PMC4264851.
